Data from PubChem BioAssay (NCATS).
Inconclusive means that the source gave no clear call. Such entries were picked first, then a sample of the others. A potency beside an inconclusive call is a rough fit, not a confirmed value. Calls of active or inactive are those of the source. Calls follow the shape of the dose curve; as a rule, active = well fitted curve in the direction sought with a large enough effect; inconclusive = small, poorly fitted or top-dose-only effect, or another doubt; inactive = no such curve, though single readings can be large; an effect the other way counts as inactive or inconclusive.

Test: qHTS of pediatric cancer cell lines to identify multiple opportunities for drug repurposing: Confirmatory screen for OHS-50 cells (AID 1347128);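 also: compound exposure lasted 48 h at 37 degrees C; nearly all actives have a fitted effect of over 55% in size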; as to activity change, negative = cytotoxic: % is scaled to controls: 0 for no effect and ±100 for the full control effect
Conditions: OHS-50 osteosarcoma cells viability; activity change, negative = cytotoxic: at 45.9 µM (top of the series)
Outline: (§1)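 Cells (500-1,000/well) rested 5 h, then received compounds for 48 h; metabolically active cells were measured by CellTiter-Glo luminescence. Final concentrations spanned up to 46 µM (MIPE, 11-point) or 0.59 nM-46 µM (NPC, 8-point) in primary screens, 11-point in follow-ups.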
Potency is read from the fitted curve at half-maximal effect.

SMILES	Potency	activity change, negative = cytotoxic
CCOc1ccc(Nc2nc(-c3c(C)nc4ccccn34)cs2)cc1	inconclusive: 0.293 µM [cytotoxic, full curve]	
CCN(CCO)CCCC(C)Nc1ccnc2cc(Cl)ccc12 (stereo not given)	inactive	
O=C(O)CCC1CCC(c2cc(F)ccc2F)(S(=O)(=O)c2ccc(Cl)cc2)CC1 (stereo not given)	inconclusive: 7.37 µM [cytotoxic, single point]	
CC1(C)S[C@H]2[C@H](NC(=O)[C@@H](N)c3ccc(O)cc3)C(=O)N2[C@@H]1C(=O)O	inactive	
CON(C)C(=O)N1N=C(c2cc(F)ccc2F)S[C@]1(CCCN)c1ccccc1	active: 0.0052 µM	
COc1cc(C(C)=O)ccc1OCCCN1CCC(c2noc3cc(F)ccc23)CC1	inconclusive: 36.9 µM [cytotoxic, partial curve, poor fit]	
CO[C@H]1C[C@@H]2CC[C@@H](C)[C@@](O)(O2)C(=O)C(=O)N2CCCC[C@@H]2C(=O)O[C@H]([C@H](C)C[C@@H]2CC[C@H](OP(C)(C)=O)[C@H](OC)C2)CC(=O)[C@H](C)C=C(C)[C@@H](O)[C@@H](OC)C(=O)[C@H](C)C[C@H](C)C=CC=CC=C1C	inconclusive: 16.5 µM [cytotoxic, partial curve, poor fit]	
CN(C)c1ccc(O)c2c1C[C@H]1C[C@H]3[C@H](N(C)C)C(=O)C(C(N)=O)=C(O)[C@@]3(O)C(=O)C1=C2O	inactive	
CCC(C)n1ncn(-c2ccc(N3CCN(c4ccc(OC[C@H]5CO[C@](Cn6cncn6)(c6ccc(Cl)cc6Cl)O5)cc4)CC3)cc2)c1=O (stereo not given in full)	inconclusive: 11.7 µM [cytotoxic, full curve]	
CN(C)CC[C@H](CSc1ccccc1)Nc1ccc(S(=O)(=O)NC(=O)c2ccc(N3CCN(Cc4ccccc4-c4ccc(Cl)cc4)CC3)cc2)cc1[N+](=O)[O-]	inconclusive: 23.3 µM [cytotoxic, partial curve, poor fit]	
COc1ccc(C(=O)CC(=O)c2ccc(C(C)(C)C)cc2)cc1	inactive	
CCNC(=O)Nc1ccc2ncc(Nc3ccc(C)cc3)nc2n1	inactive	
C[C@@]1(c2cc(-c3cncnc3)c(F)cc2F)CCSC(N)=N1	inconclusive: 32.9 µM [cytotoxic, single point]	
CC(=O)O[C@]1(C(C)=O)CC[C@@H]2[C@@H]3C[C@H](C)C4=CC(=O)CC[C@]4(C)[C@H]3CC[C@@]21C	inactive	
CC1(C)C(=O)N(CCN2CCC(C(=O)c3ccc(F)cc3)CC2)c2ccccc21	inconclusive: 16.5 µM [cytotoxic, partial curve, poor fit]	
CCCOc1ccc2nc(NC(=O)OC)[nH]c2c1	inconclusive: 0.827 µM [cytotoxic, full curve]	
CO[C@H]1/C=C\O[C@@]2(C)Oc3c(C)c(O)c4c(O)c(c5c(nc6cc(C)ccn65)c4c3C2=O)NC(=O)C(C)=CC=C[C@H](C)[C@H](O)[C@@H](C)[C@@H](O)[C@@H](C)[C@H](OC(C)=O)[C@H]1C		inconclusive: -30.8% [cytotoxic]
COc1cc([C@@H]2c3cc4c(cc3[C@H](O)[C@H]3COC(=O)[C@@H]23)OCO4)cc(OC)c1OC	inconclusive: 0.827 µM [cytotoxic, full curve]	
CNC1CCC(N(Cc2cccc(-c3ccncc3)c2)C(=O)c2sc3c(F)ccc(F)c3c2Cl)CC1 (stereo not given)	inconclusive: 29.3 µM [cytotoxic, single point]	
O=C(NC1CC1)c1cccc(-c2ccc3c(NC(=O)C4CC4)n[nH]c3c2)c1	inconclusive: 29.3 µM [cytotoxic, single point]	
CC[C@H](NC(=O)[C@H](C)NC)C(=O)N1C[C@@H](O)C[C@H]1Cc1c(-c2[nH]c3cc(F)ccc3c2C[C@H]2C[C@H](O)CN2C(=O)[C@H](CC)NC(=O)[C@H](C)NC)[nH]c2cc(F)ccc12	inconclusive: 4.65 µM [cytotoxic, partial curve, poor fit]	

Taken from the listing for reference:
SMILES	Potency	activity change, negative = cytotoxic
CCC(C)n1ncn(-c2ccc(N3CCN(c4ccc(OC[C@H]5CO[C@](Cn6cncn6)(c6ccc(Cl)cc6Cl)O5)cc4)CC3)cc2)c1=O (stereo not given in full)	inconclusive: 11.7 µM [cytotoxic, full curve]	
CN(C)CC[C@H](CSc1ccccc1)Nc1ccc(S(=O)(=O)NC(=O)c2ccc(N3CCN(Cc4ccccc4-c4ccc(Cl)cc4)CC3)cc2)cc1[N+](=O)[O-]	inconclusive: 23.3 µM [cytotoxic, partial curve, poor fit]	
COc1ccc(C(=O)CC(=O)c2ccc(C(C)(C)C)cc2)cc1	inactive	
CCNC(=O)Nc1ccc2ncc(Nc3ccc(C)cc3)nc2n1	inactive	
C[C@@]1(c2cc(-c3cncnc3)c(F)cc2F)CCSC(N)=N1	inconclusive: 32.9 µM [cytotoxic, single point]	
CC(=O)O[C@]1(C(C)=O)CC[C@@H]2[C@@H]3C[C@H](C)C4=CC(=O)CC[C@]4(C)[C@H]3CC[C@@]21C	inactive	
CC1(C)C(=O)N(CCN2CCC(C(=O)c3ccc(F)cc3)CC2)c2ccccc21	inconclusive: 16.5 µM [cytotoxic, partial curve, poor fit]	
CCCOc1ccc2nc(NC(=O)OC)[nH]c2c1	inconclusive: 0.827 µM [cytotoxic, full curve]	
CO[C@H]1/C=C\O[C@@]2(C)Oc3c(C)c(O)c4c(O)c(c5c(nc6cc(C)ccn65)c4c3C2=O)NC(=O)C(C)=CC=C[C@H](C)[C@H](O)[C@@H](C)[C@@H](O)[C@@H](C)[C@H](OC(C)=O)[C@H]1C		inconclusive: -30.8% [cytotoxic]
COc1cc([C@@H]2c3cc4c(cc3[C@H](O)[C@H]3COC(=O)[C@@H]23)OCO4)cc(OC)c1OC	inconclusive: 0.827 µM [cytotoxic, full curve]	

Test: qHTS of pediatric cancer cell lines to identify multiple opportunities for drug repurposing: Confirmatory screen for SK-N-SH cells (AID 1347129);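 also: cells exposed to compound for 48 h before viability read; nearly all actives have a fitted effect of over 60% in size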;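 as to activity change, negative = cytotoxic: plate controls were DMSO for no effect and bortezomib control for full effect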
Conditions: SK-N-SH neuroblastoma cell viability; series mostly up to 46.1 µM
Outline: as §1

SMILES	Potency
CCOc1ccc(Nc2nc(-c3c(C)nc4ccccn34)cs2)cc1	inconclusive: 0.0833 µM [cytotoxic, full curve]
CC(C)n1c(C=C[C@H](O)C[C@H](O)CC(=O)O)c(-c2ccc(F)cc2)c2ccccc21	active: 4.18 µM
NC12CC3CC(CC(C3)C1)C2	inactive
O=C(O)CCC1CCC(c2cc(F)ccc2F)(S(=O)(=O)c2ccc(Cl)cc2)CC1 (stereo not given)	inactive
CC1(C)S[C@H]2[C@H](NC(=O)[C@@H](N)c3ccc(O)cc3)C(=O)N2[C@@H]1C(=O)O	inactive
CON(C)C(=O)N1N=C(c2cc(F)ccc2F)S[C@]1(CCCN)c1ccccc1	inconclusive: 0.0105 µM [cytotoxic, full curve]
Cc1ccc(C(=O)N(CCCN)[C@@H](c2oc3cc(Cl)ccc3c(=O)c2Cc2ccccc2)C(C)C)cc1	inconclusive: 26.4 µM [cytotoxic, partial curve, poor fit]
C[C@]1(c2nc3c(C(N)=O)cccc3[nH]2)CCCN1	inactive
CN(C)CC[C@H](CSc1ccccc1)Nc1ccc(S(=O)(=O)NC(=O)c2ccc(N3CCN(Cc4ccccc4-c4ccc(Cl)cc4)CC3)cc2)cc1[N+](=O)[O-]	inconclusive: 0.0235 µM [cytotoxic, full curve, poor fit]
O=C1NC(=O)C(=Cc2ccc3c(c2)OC(F)(F)O3)S1	inactive
C[C@@]1(c2cc(-c3cncnc3)c(F)cc2F)CCSC(N)=N1	inconclusive: 0.132 µM [cytotoxic, full curve]
CC1(C)C(=O)N(CCN2CCC(C(=O)c3ccc(F)cc3)CC2)c2ccccc21	inconclusive: 4.69 µM [cytotoxic, partial curve, poor fit]
CCCOc1ccc2nc(NC(=O)OC)[nH]c2c1	inconclusive: 0.526 µM [cytotoxic, full curve]
O=C1c2c(O)cc(O)cc2OC(c2ccc(O)c(O)c2)C1O (stereo not given)	inactive
Cc1ccc2c(c1)C(=O)[C@]1(O)CCN(c3ccccc3)C1=N2	inactive
O=C(O)c1ccc(-c2cc3cccnc3c(-c3ccc4nonc4c3)n2)cc1	inactive
CC1(C)O[C@H]2C[C@@H]3[C@H]4CCC5=CC(=O)C=C[C@]5(C)[C@@]4(F)[C@@H](O)C[C@]3(C)[C@]2(C(=O)CO)O1	inactive
COc1cc([C@@H]2c3cc4c(cc3[C@H](O)[C@H]3COC(=O)[C@@H]23)OCO4)cc(OC)c1OC	inconclusive: 0.469 µM [cytotoxic, full curve]
O=C(NC1CC1)c1cccc(-c2ccc3c(NC(=O)C4CC4)n[nH]c3c2)c1	inconclusive: 11.8 µM [cytotoxic, partial curve]
